Laboratory results: PubChem BioAssay AID540256 (National Center for Advancing Translational Sciences (NCATS), 2011)
In all, about 300,000 compounds went through this assay and about 3,700 (1.2%) were called active. The shares of active, inactive and inconclusive entries below differ from those in the screen. Calls follow the shape of the full dose curve; tested in HEK293 cells. Where the call is inconclusive, the potency comes from a doubtful curve fit.

assay: qHTS for Inhibitors of binding or entry into cells for Lassa Virus; details: Lassa virus pseudotype entry inhibition, cell reporter; activity change, negative = inhibition: at 37.9 µM (top of the series) unless noted; also: nearly all actives have a fitted effect of over 50% in size
% is scaled to controls: 0 for no effect and ±100 for the full control effect; potency is read from the fitted curve at half-maximal effect.

| SMILES | activity change, negative = inhibition | Potency |
| --- | --- | --- |
| CCn1c(CNC(=O)c2ccccc2Br)nnc1SCC(=O)NC1=NCCS1 | inactive: -2.67% | – |
| COC(=O)c1nnn(CC(=O)Nc2c(C)cccc2C)c1N | – | inconclusive: 15.8 µM [activator, single point] |
| O=C(COc1cccc(F)c1)NNC(=O)c1cccc(-n2cccc2)c1 | inactive: 6.54% | – |
| COc1ccc(CNC(=O)c2ccc(C(C)C)cc2)cc1 | – | inconclusive: 15.8 µM [inhibitor, single point] |
| O=C(CN(Cc1ccccc1)C(=O)CCC(=O)Nc1nccs1)NCC1CCCO1 (configuration not stated) | – | inconclusive: 7.08 µM [activator, full curve, poor fit] |
| O=S(=O)(c1c(F)cccc1F)N(CCc1ccc(F)cc1)C[C@@H](O)COCc1ccccc1 | – | inconclusive: 22.3 µM [inhibitor, partial curve, poor fit] |
| CCOc1ccc(NC(=S)NC(=O)c2cnn(CC)c2)c([N+](=O)[O-])c1 | inactive: -23.1% [at 46.1 µM] | – |
| CCCC(=O)OCC(=O)c1[nH]c(C)c(C(C)=O)c1C | – | inconclusive: 20 µM [activator, single point] |
| CC(C)(C)NC(=O)C(=O)NN=C1CCCCCC1 | – | inconclusive: 14.1 µM [activator, single point] |
| Cn1c(=O)c2c(nc(NC3CCCCC3)n2CC(=O)C23CC4CC(CC(C4)C2)C3)n(C)c1=O | – | inconclusive: 0.231 µM [activator, single point] |
| Cc1cc(N/N=C/c2ccccc2)nc(N2CCOCC2)n1 | inactive: 6.15% | – |
| Clc1ccc(Nc2cc(-c3ccccc3)nc3ncnn23)cc1 | – | inconclusive: 0.891 µM [inhibitor, partial curve, poor fit] |
| COc1cc(C(=O)Nc2ccc3oc(-c4cccnc4)nc3c2)cc(OC)c1OC | inactive: -24.8% | – |
| COc1cc2c(cc1NC(=O)COCC(=O)O)oc1ccccc12 | inactive: 24.3% [at 46.1 µM] | – |
| CCOc1cc(CNCCO)cc(Br)c1OCc1ccc(Cl)cc1 | – | inconclusive: 35.5 µM [inhibitor, single point] |
| CCOC(=O)c1ccc(NC(=O)C(=O)NCC2CCCO2)cc1 (configuration not stated) | inactive: 8.41% | – |
| COc1ccc(-n2ncc(C(=O)N3CCN(C4CCCCC4)CC3)c2C2CCN(C(=O)OC(C)(C)C)CC2)cc1 | – | inconclusive: 7.08 µM [inhibitor, full curve, poor fit] |
| COc1ccc(NC(=O)CN(C)Cc2cccs2)cc1Cl | – | inconclusive: 8.91 µM [inhibitor, partial curve] |
| CN(C)S(=O)(=O)c1cccc(NC(=O)CNCc2ccccn2)c1 | – | inconclusive: 0.562 µM [inhibitor, full curve, poor fit] |
| CC1(C)Cc2c(cnn2-c2ccc(F)cc2)C(NC(=O)c2cnccn2)C1 (configuration not stated) | inactive: -6.11% | – |
| C/C(=N\NC(=O)c1c(Cl)cnn1C)c1ccc(NC(=O)c2ccncc2)cc1 | inactive: -1.33% | – |
| O=C(CSc1nn(-c2ccccc2)c(=S)s1)Nn1cnnc1 | – | inconclusive: 1.12 µM [activator, partial curve, poor fit] |
| CC(=O)c1ccc(NC(=O)/C(=C\c2ccccc2)NC(=O)c2ccco2)cc1 | inactive: -21% | – |

| SMILES | activity change, negative = inhibition | Potency |
| --- | --- | --- |
| O=C(NCC1CCCO1)c1ccc(S(=O)(=O)Nc2ccccc2F)cc1 (configuration not stated) | – | inconclusive: 11.2 µM [inhibitor, partial curve, poor fit] |
| CC(=O)Nc1nnc(SCC(=O)c2ccc3c(c2)Cc2ccccc2-3)s1 | – | inconclusive: 10 µM [inhibitor, partial curve, poor fit] |
| O=C(CN1C(=O)/C(=C\C=C\c2ccccc2)SC1=S)Nc1ccc(F)cc1 | – | inconclusive: 35.5 µM [inhibitor, partial curve, poor fit] |
| O=C(COc1cccc2c1CCN(Cc1ccc(Br)cc1)C2=O)N1CCOCC1 | – | inconclusive: 11.2 µM [inhibitor, partial curve, poor fit] |
| O=S1(=O)CCS(=O)(=O)C1c1ccccc1 | – | inconclusive: 22.4 µM [inhibitor, single point] |
| CCOC(=O)Cc1c(C)nc2cc(-c3ccc(C(C)(C)C)cc3)nn2c1C | inactive: 11.3% [at 46.1 µM] | – |
| Cc1ccc(S(=O)(=O)N2CCOCC2)c(C)c1NS(C)(=O)=O | – | inconclusive: 0.355 µM [inhibitor, partial curve, poor fit] |
| N#Cc1ccccc1COC(=O)c1ccc2c(c1)OCCO2 | – | inconclusive: 22.4 µM [inhibitor, single point] |
| COCc1cc(C)nc2sc(C(=O)Nc3ccc(C(C)=O)cc3)c(N)c12 | inactive: 5.03% [at 46.1 µM] | – |
| CN(C)C(=O)c1ccc(Nc2nc(-c3cccs3)nc3ccccc23)cc1 | – | inconclusive: 28.2 µM [inhibitor, single point] |
| CCOc1cc(S(=O)(=O)Nc2ccccc2CC)ccc1Cl | inactive: -7.3% | – |
| Cc1cc(OCc2ccc([N+](=O)[O-])cc2)c2c3c(c(=O)oc2c1)CCCC3 | – | inconclusive: 1.26 µM [activator, single point] |
| c1ccc(N2CC3COc4ccccc4C3=N2)cc1 (configuration not stated) | – | inconclusive: 0.398 µM [activator, full curve] |
| CCc1cccc(NC(=O)CSc2nc3ccccc3nc2N2CCCCC2)c1 | – | inconclusive: 0.562 µM [inhibitor, full curve, poor fit] |
| COc1ccc(OCC(=O)Nc2cccc(C(=O)OCc3cc(=O)n4nc(C)sc4n3)c2)cc1 | – | inconclusive: 6.31 µM [activator, single point] |
| COc1cccc(NC(=O)c2sc3nc(C)c(C(=O)Nc4ccc(C)cc4C)c(-c4ccco4)c3c2N)c1 | – | inconclusive: 12.6 µM [activator, single point] |
| Cc1nc2c3ccccc3nc(NNC(=O)CCC(=O)N3CCN(c4cc(Cl)ccc4C)CC3)n2n1 | inactive: 18% [at 46.1 µM] | – |
| O=C(C1CCN(S(=O)(=O)c2ccc3ccccc3c2)CC1)N1CCN(c2ncccn2)CC1 | – | inconclusive: 35.5 µM [inhibitor, partial curve, poor fit] |
| CCOC(=O)c1cc(-c2ccccc2)sc1NC(=O)CCN1C(=O)c2ccccc2C1=O | inactive: 10.7% | – |
| COc1ccccc1NC(=O)CSc1n[nH]c(-c2ccccn2)n1 | – | inconclusive: 22.4 µM [inhibitor, single point] |
| O=C(NNC(=O)c1ccccc1C(F)(F)F)c1csc(N2CCOCC2)n1 | inactive: -4.9% | – |
| Cc1ccc(CSCC(=O)N(C)CC(=O)Nc2ccc(Cl)c(Cl)c2)cc1 | – | inconclusive: 1.26 µM [activator, single point] |
| Fc1ccccc1NC(=S)Nc1ccc(Br)cc1 | – | inconclusive: 12.6 µM [inhibitor, single point] |

| SMILES | activity change, negative = inhibition | Potency |
| --- | --- | --- |
| COC(=O)C1=C(O)/C(=C\c2sccc2C)N=C1C | inactive: -2.9% | – |
| COc1cc2c(cc1OC)C1(Nc3c-2c(Cc2ccccc2)nn3-c2ccccc2)C(=O)Nc2ccccc21 (configuration not stated) | – | inconclusive: 35.5 µM [inhibitor, single point] |
| Cc1cccc(N2CCN(C(=O)C3CCN(S(=O)(=O)c4c(C)noc4/C=C/c4ccccc4F)CC3)CC2C)c1 (configuration not stated) | inactive: 0.0265% [at 46.1 µM] | – |
| O=C(Nc1nc(-c2ccccc2)cs1)c1ccc(N2CCOCC2)c([N+](=O)[O-])c1 | – | inconclusive: 12.6 µM [inhibitor, partial curve, poor fit] |
| CCOC(=O)c1cc2c(=O)n3ccccc3nc2n(Cc2ccco2)c1=NC(=O)c1cccc(C)c1 | inactive: -6.32% [at 46.1 µM] | – |
| c1ccc(CN2CCN(c3nc(NCc4ccco4)c4ccccc4n3)CC2)cc1 | – | active: 12.6 µM |
| CCC(=O)Nc1ccc(C(=O)Nc2cccnc2)cc1 | – | inconclusive: 16.4 µM [activator, partial curve, poor fit] |
| CCOc1ccc(NC(=O)CC2C(=O)N(c3ccccc3)C(=O)N2C2CCCC2)cc1 (configuration not stated) | – | inconclusive: 10 µM [inhibitor, partial curve] |
| O=C(Cn1c(/C=C/c2ccccc2)nc2ccccc21)Nc1ccc(F)cc1 | – | inconclusive: 1.26 µM [inhibitor, single point] |
| Cc1cccc(N2CCN(C(=O)c3cnn(-c4ccc(F)cc4F)c3C3CCN(C(=O)OC(C)(C)C)CC3)CC2)c1C | – | inconclusive: 2 µM [inhibitor, full curve] |
| CCN(c1ccccc1)S(=O)(=O)c1ccc(Cl)c(C(=O)NCCc2ccc(OC)cc2)c1 | – | inconclusive: 16.4 µM [inhibitor, single point] |
| CCOc1ccc(NC(=O)CC2C(=O)N(c3ccc(OC)cc3)C(=O)N2C2CCCCC2)cc1 (configuration not stated) | – | inconclusive: 35.5 µM [inhibitor, single point] |
| COc1ccccc1-c1cc(C(=O)N/N=C/c2sccc2C)c2ccccc2n1 | – | inconclusive: 22.4 µM [inhibitor, single point] |
| Cc1ccccc1-n1cnc2c(sc3nc(N4CCOCC4)c4c(c32)CCCC4)c1=O | – | inconclusive: 35.5 µM [inhibitor, single point] |
| O=C(CN(Cc1ccc(Cl)cc1)C(=O)c1csnn1)NCc1ccccc1 | – | inconclusive: 8.91 µM [inhibitor, partial curve, poor fit] |
| OC(CNCC1CCCO1)Cn1c2ccc(Cl)cc2c2cc(Cl)ccc21 (configuration not stated) | – | inconclusive: 29.1 µM [inhibitor, single point] |
| COc1ccc([C@]23Cc4cc(OC)c(OC)cc4[C@H](O2)c2c(cc(C)n(Cc4ccccc4)c2=O)O3)cc1 | – | inconclusive: 1.5 µM [activator, partial curve, poor fit] |
| CC(Oc1ccc(C#N)cc1)C(=O)Nc1ccc(-n2cnnn2)cc1 (configuration not stated) | – | inconclusive: 1.26 µM [inhibitor, single point] |
| C/C(CC(=O)NC1CCCCCC1)=N\NC(=O)c1cnccn1 | inactive: 13.9% | – |
| Cc1ccccc1OCCOCCN1CCCCCC1 | inactive: 9.28% [at 46.1 µM] | – |
| Fc1cc(F)cc(NC(=S)Nc2ccccc2N2CCOCC2)c1 | inactive: -9.33% [at 46.1 µM] | – |

One compound at a time, as listed above:
CCOc1ccc(NC(=O)CC2C(=O)N(c3ccccc3)C(=O)N2C2CCCC2)cc1 (configuration not stated) is entered as Potency: inconclusive: 10 µM [inhibitor, partial curve]
COc1ccccc1-c1cc(C(=O)N/N=C/c2sccc2C)c2ccccc2n1 is entered as Potency: inconclusive: 22.4 µM [inhibitor, single point]
c1ccc(CN2CCN(c3nc(NCc4ccco4)c4ccccc4n3)CC2)cc1 is entered as Potency: active: 12.6 µM
O=C(CN(Cc1ccc(Cl)cc1)C(=O)c1csnn1)NCc1ccccc1 is entered as Potency: inconclusive: 8.91 µM [inhibitor, partial curve, poor fit]
